Assay [1] deals with Na+/K+ ATPases β1 subunit (rat (endogenous in hippocampal CA1)) (UniProt P07340). Put plainly: proximity ligation; Duolink In Situ Red kit on dorsal hippocampus sections of Sham rats and of tGCI and HPC rats 26 h after reperfusion; rabbit anti-Ngb and mouse anti-Atp1b1.
For assay [2] the target is unchanged. The assay is described as follows: co-IP; 150 μg membrane proteins of hippocampal CA1 from Sham, tGCI and HPC rats; IP with mouse anti-Atp1b1 antibody at 4 °C overnight, protein G agarose, washed five times with PBS containing 1% Tween; blot with rabbit anti-Ngb.

From publication PMC5970211 come the findings set out here.

No constants are given. Whether binding was seen depends on the method and setting. Binding seen in cells or lysates may run through a third protein. Some binding calls cover weakened binding; strength is not graded here.

B1: Neuroglobin (protein, UniProt Q99JA8 1-151)
chain: MERPESELIRQSWRAVSRSPLEHGTVLFSRLFALEPSLLPLFQYNGRQFSSPEDCLSSPEFLDHIRKVMLVIDAAVTNVEDLSSLEEYLATLGRKHRAVGVRLSSFSTVGESLLYMLEKCLGPDFTPATRTAWSQLYGAVVQAMSRGWDGE
In the case of B1, the binding entry in assay [1] and in assay [2] was “binds” throughout.
